No constants are given. Whether binding was seen depends on the method and setting. Some entries that bind do so weakly or less than the wild type.

Chains of the proteins cited; added tags and fusions are not shown. Lines headed by an entry give the natural chain unless they say otherwise; changes in a name come on top.
UniProt P21926: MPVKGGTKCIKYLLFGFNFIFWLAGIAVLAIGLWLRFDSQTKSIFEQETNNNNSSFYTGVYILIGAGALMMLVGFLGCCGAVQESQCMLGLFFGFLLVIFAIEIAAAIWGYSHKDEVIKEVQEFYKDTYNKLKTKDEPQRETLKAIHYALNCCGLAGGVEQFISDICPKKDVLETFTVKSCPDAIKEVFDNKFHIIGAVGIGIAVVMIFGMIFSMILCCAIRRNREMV

Assay [1] addresses recombinant human CD9 long extracellular loop 2-human Fc fusion protein (10015-CD, R&D Systems) (human) (UniProt P21926). Briefly: BLI (Octet RED384), CD9 loop 2-Fc on AHC biosensors, Fab-Y at 10 µg/mL.
Assay [2] shares this target. Briefly: BLI (Octet RED384), CD9 loop 2-Fc on AHC biosensors. (In general: Biolayer interferometry detects binding as a change in optical thickness at a sensor tip.)

B1: anti-CD9 Fab-Y 7272 (Fab, V domains shown)
VH: QSLEESGGRLVTPGTPLTLTCTVSGFSLSSYAMGWVRQAPGKGLEWIGAIGSITATGYARWAKGRFSISKTSTTVDLKMTSPTTEDTATYFCAREIYVGSAYAFDIWGPGTLVTVSS
VL: AYDMTQTPASVEVAVGDTVTIKCQASQSISNYLAWYQQKPGQPPKLLIYLASTLASGVPSRFKGSGSGTEFTLTISDLECADAATYYCQQGYIDNVNKGFGGGTEVVVK
notes: Tested as Fab-Y: a Fab whose CH1 is joined by a peptide linker to the GCN4 peptide (clone 7P14P); also called VR7272
Regarding B1, the binding entry in assay [1] and in assay [2] was “binds” each time.

These data come from patent US20230151108A1 (UCB, published 2023).
